Source: PubChem BioAssay AID743121 (NCATS, 2013)
Shown is an unselected part of about 26,000 reagents. 167 of all reagents (0.63%) count as active. 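Calls are per gene from RSA p-values that are not deposited; an individual active-marked siRNA can sensitise only weakly.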 Entries without a mark were called inactive. Reagents against one gene are numbered here. Not all columns of the deposit are shown.

- Assay: 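Genes whose silencing strengthens cell killing by camptothecin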 (primary screen)
- Cell system: MDA-MB-231 cells, a human breast cancer line
- Reagents: single siRNA against human genes, 20 nM siRNA (0.8 pmol per well)
- Time to read-out: 120 h (drug added 48 h after transfection, read 72 h later)
- Conditions: camptothecin 20 nM (about EC30) for 72 h; vehicle 0.1% DMSO in parallel plates
- Measured: 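Cell viability by ATP luminescence (CellTiter-Glo) as % of non-targeting siRNA wells, and the log2 ratio of viability without drug over viability with camptothecin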
- Scale: log2 vehicle/camptothecin viability: higher = stronger sensitisation to camptothecin; viability with camptothecin: higher = more viable cells
- Call rule: 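Active genes have an RSA gene-level p-value below 0.001, computed from the ratios of their separate siRNAs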

GLI3 #1 → log2 vehicle/camptothecin viability = 0.71; viability with camptothecin (% of control) = 42.2
GLI3 #2 → log2 vehicle/camptothecin viability = -0.14; viability with camptothecin (% of control) = 121
GLI3 #3 → log2 vehicle/camptothecin viability = -0.441; viability with camptothecin (% of control) = 79.6
SLC4A7 #1 → log2 vehicle/camptothecin viability = -0.305; viability with camptothecin (% of control) = 107
SLC4A7 #2 → log2 vehicle/camptothecin viability = -0.144; viability with camptothecin (% of control) = 49.5
SLC4A7 #3 → log2 vehicle/camptothecin viability = -0.111; viability with camptothecin (% of control) = 44
SLC4A7 #4 → log2 vehicle/camptothecin viability = -0.381; viability with camptothecin (% of control) = 112
GABRB3 #1 → log2 vehicle/camptothecin viability = -0.475; viability with camptothecin (% of control) = 130
GABRB3 #2 → log2 vehicle/camptothecin viability = 0.139; viability with camptothecin (% of control) = 29.1
GABRB3 #3 → log2 vehicle/camptothecin viability = -0.487; viability with camptothecin (% of control) = 89.1
GABRB3 #4 → log2 vehicle/camptothecin viability = 0.139; viability with camptothecin (% of control) = 68.1
PRPS1 #1 → log2 vehicle/camptothecin viability = 0.386; viability with camptothecin (% of control) = 8.21
PRPS1 #2 → log2 vehicle/camptothecin viability = -0.201; viability with camptothecin (% of control) = 52.9
PRPS1 #3 → log2 vehicle/camptothecin viability = 0.00461; viability with camptothecin (% of control) = 99
PRPS1 #4 → log2 vehicle/camptothecin viability = -0.0413; viability with camptothecin (% of control) = 102

Part of the list above, set out differently.
{"Gene": "SLC4A7", "siRNA no.": 1, "log2 vehicle/camptothecin viability": -0.305, "viability with camptothecin (% of control)": 107}
{"Gene": "SLC4A7", "siRNA no.": 2, "log2 vehicle/camptothecin viability": -0.144, "viability with camptothecin (% of control)": 49.5}
{"Gene": "SLC4A7", "siRNA no.": 3, "log2 vehicle/camptothecin viability": -0.111, "viability with camptothecin (% of control)": 44}
